Substitutions are numbered along the chain they refer to. Results are given in words; binding and its absence hold for the method and conditions named. Binding can be weak; no strength is given. Where a sequence is shown, tags or fusion partners need not be part of it.
Assays:
[1] = molecular target: T1, BD-Upf1 Mutant 23: L115A Y123A (S. cerevisiae) (UniProt P30771); assay: two-hybrid; yeast two-hybrid, β-galactosidase plate assay; AD and BD fusions; for the point mutants: mating of MATa (yRP2094) and MATα (yRP2093) strains and selection of diploids on drop-out media
T1 sequence: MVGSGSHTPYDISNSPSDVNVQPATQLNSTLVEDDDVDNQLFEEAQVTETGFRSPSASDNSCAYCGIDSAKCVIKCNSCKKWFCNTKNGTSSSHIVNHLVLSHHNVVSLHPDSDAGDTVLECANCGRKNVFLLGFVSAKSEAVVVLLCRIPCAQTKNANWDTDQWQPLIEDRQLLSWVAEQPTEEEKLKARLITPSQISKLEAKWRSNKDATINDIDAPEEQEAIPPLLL

Amino acid sequences for entries named in this document (tags omitted). A change or cut given only in a name is not applied to a line headed by its entry.
UniProt P38798: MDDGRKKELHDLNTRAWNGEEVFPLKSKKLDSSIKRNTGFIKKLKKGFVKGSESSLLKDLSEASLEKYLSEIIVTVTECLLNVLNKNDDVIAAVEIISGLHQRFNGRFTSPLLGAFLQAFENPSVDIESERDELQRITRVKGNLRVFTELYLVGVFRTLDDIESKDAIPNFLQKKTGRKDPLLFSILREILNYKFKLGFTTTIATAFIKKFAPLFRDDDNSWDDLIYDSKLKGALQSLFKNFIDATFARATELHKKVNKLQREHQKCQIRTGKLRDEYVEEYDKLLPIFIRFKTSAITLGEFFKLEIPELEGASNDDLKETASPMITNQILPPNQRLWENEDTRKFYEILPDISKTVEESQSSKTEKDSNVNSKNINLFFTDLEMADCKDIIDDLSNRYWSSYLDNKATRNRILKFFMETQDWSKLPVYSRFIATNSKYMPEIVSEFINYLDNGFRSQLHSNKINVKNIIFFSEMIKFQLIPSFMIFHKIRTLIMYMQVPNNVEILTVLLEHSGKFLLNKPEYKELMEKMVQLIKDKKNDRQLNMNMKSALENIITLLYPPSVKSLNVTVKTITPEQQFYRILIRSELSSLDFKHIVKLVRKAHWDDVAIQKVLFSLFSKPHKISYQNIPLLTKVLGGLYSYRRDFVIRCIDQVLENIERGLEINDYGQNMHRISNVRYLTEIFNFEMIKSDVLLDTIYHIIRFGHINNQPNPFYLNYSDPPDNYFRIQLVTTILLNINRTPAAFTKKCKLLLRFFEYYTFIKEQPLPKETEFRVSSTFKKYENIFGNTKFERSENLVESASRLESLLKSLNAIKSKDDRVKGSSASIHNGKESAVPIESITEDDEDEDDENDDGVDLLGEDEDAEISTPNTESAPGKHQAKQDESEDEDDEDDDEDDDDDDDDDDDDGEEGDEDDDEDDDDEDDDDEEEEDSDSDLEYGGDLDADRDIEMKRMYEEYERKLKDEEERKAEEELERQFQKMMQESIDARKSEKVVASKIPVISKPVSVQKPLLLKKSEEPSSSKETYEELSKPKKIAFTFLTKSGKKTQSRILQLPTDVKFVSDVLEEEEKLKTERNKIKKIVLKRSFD

[2] = molecular target: T2, BD-Upf1 Mutant 24: W177A (S. cerevisiae) (UniProt P30771); assay: as above
T2 sequence: T1 sequence with A115L, A123Y, W177A

[3] = molecular target: T3, BD-Upf1 Mutant 3: Q166A E170A L175A W177A (S. cerevisiae) (UniProt P30771); assay: as above
T3 sequence: T1 sequence with A115L, A123Y, Q166A, E170A, L175A, W177A

[4] = molecular target: T4, BD-Upf1 N-terminus (1–230) (S. cerevisiae) (UniProt P30771); assay: as above
T4 sequence: T1 sequence with A115L, A123Y

[5] = molecular target: T5, BD-Upf1 Mutant 18: P111A D112A D114A D117A (S. cerevisiae) (UniProt P30771); assay: as above
T5 sequence: T1 sequence with P111A, D112A, D114A, A115L, D117A, A123Y

[6] = molecular target: T4, BD-Upf1 N-terminus (1–230) (S. cerevisiae); assay: two-hybrid; yeast two-hybrid, β-galactosidase plate assay; one haploid strain transformed with both the AD and BD plasmids; deletion strains yRP2834 (edc3Δ), yRP2835 (upf2Δ), yRP2836 (pat1Δ)

Measured: binding

AD-Upf2 C-terminus (Ct 157 AA) (from UniProt P38798) (domain or fragment)
binds: [1] | [2] | [3] | [4] | [5] | [6]
